Measurements reported in PubChem BioAssay AID602196 (INSERM, 2012).
In all, the deposit lists about 23,000 reagents; this is a part drawn at random. 455 of them (2%) were called active. 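Active includes both protection and sensitisation; some change values fall well beyond the stated -50 to +50 range.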 Not all columns of the deposit are shown. Not stated in the record: the amount of reagent.

Aim: 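Knock-downs that protect lung cancer cells from cisplatin or sensitise them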
Cell system: human A549 lung cancer cells
Reagents: siRNA pair against human genes
Timing: 48 h transfection before cisplatin; time from cisplatin to read-out not stated
Treatment: cisplatin at a dose killing half of control-siRNA cells; exact dose and duration not given
Measurement: 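Cisplatin cell death as a shift from the 50% death seen with control siRNA; siRNAs toxic or growth-blocking alone scored 0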
Reading the numbers: two-siRNA summed score (-2 to +2): higher = both siRNAs protect from cisplatin killing; -2 means both sensitise
Active means: 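Each siRNA scores 0 if harmful alone by LDH or WST-1, otherwise +1 if it reduces and -1 if it increases cisplatin killing; a gene is active when both siRNAs agree (sum +2 or -2)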
Meaning of the calls: active = both siRNAs shift cisplatin killing the same way; inactive = no consistent shift, or siRNA harmful alone

gene symbol	PubChem SID	two-siRNA summed score (-2 to +2)	Call
LOC124976	SID131514529	0	inactive
PTGER4P2-CDK2AP2P2	SID131509851	0	inactive
GUCY2F	SID131501698	-1	inactive
RAB21	SID131501402	-1	inactive
DOK1	SID131502612	-1	inactive
SLC40A1	SID131514975	0	inactive
HAVCR2	SID131509408	0	inactive
EIF5B	SID131506457	0	inactive
CDK16	SID131523180	2	active
LOC440542	SID131521301	1	inactive
ABCD1	SID131521761	1	inactive
CXorf58	SID131512942	0	inactive
LOC253883	SID131514382	0	inactive
LOC400642	SID131519308	1	inactive
BRI3BP	SID131509455	0	inactive
RNF216	SID131505297	0	inactive
OR10W1	SID131515858	0	inactive
BEX4	SID131504117	0	inactive
NUP210	SID131510339	0	inactive
AIF1L	SID131512147	0	inactive
LOC440389	SID131512354	0	inactive
LOC149709	SID131520409	1	inactive
PLEKHB2	SID131512446	0	inactive
HSPB2	SID131510866	0	inactive
CCL18	SID131515479	0	inactive
LOC286495	SID131515631	0	inactive
AMELX	SID131500974	-1	inactive
FRMD4A	SID131516598	0	inactive
C19orf12	SID131504472	0	inactive
KIF3A	SID131500363	-2	active
TAGLN2	SID131500633	-1	inactive
LOC387870	SID131504555	0	inactive
ZNF275	SID131521481	1	inactive
ADGRA3	SID131505433	0	inactive
RIMS4	SID131507629	0	inactive
PAX7	SID131512785	0	inactive
ACAA2	SID131507772	0	inactive
ARHGEF15	SID131501417	-1	inactive
ATP8B1	SID131517601	0	inactive
LOC388504	SID131513248	0	inactive
LOC286436	SID131519839	1	inactive
CDY1B	SID131512346	0	inactive
LOC90113	SID131508799	0	inactive
KRTAP4-7	SID131513592	0	inactive
SIGLEC7	SID131500483	-1	inactive
JHY	SID131509735	0	inactive
SLC35C1	SID131515464	0	inactive
PTER	SID131509701	0	inactive
LOC342659	SID131501368	-1	inactive
OSBPL9	SID131519691	1	inactive
CSNK1A1L	SID131521307	1	inactive
LOC344328	SID131522694	1	inactive
TTLL5	SID131503646	0	inactive
ARK2N	SID131522833	1	inactive
ST3GAL2	SID131521507	1	inactive
PDE6H	SID131512767	0	inactive
LXN	SID131503457	0	inactive

Called active, among the entries above:
gene symbol	PubChem SID	two-siRNA summed score (-2 to +2)	Call
CDK16	SID131523180	2	active
KIF3A	SID131500363	-2	active
